Source: patent publication US7674823B2, “DNA-PK inhibitors” (Cancer Research Technology Limited, priority 2001, dated 2010)
The structures given here were assigned with low confidence; some may be wrong.

Protein sequences, listed by entry. Tags and fused reporters are not part of them.
UniProt P32871, whole entry: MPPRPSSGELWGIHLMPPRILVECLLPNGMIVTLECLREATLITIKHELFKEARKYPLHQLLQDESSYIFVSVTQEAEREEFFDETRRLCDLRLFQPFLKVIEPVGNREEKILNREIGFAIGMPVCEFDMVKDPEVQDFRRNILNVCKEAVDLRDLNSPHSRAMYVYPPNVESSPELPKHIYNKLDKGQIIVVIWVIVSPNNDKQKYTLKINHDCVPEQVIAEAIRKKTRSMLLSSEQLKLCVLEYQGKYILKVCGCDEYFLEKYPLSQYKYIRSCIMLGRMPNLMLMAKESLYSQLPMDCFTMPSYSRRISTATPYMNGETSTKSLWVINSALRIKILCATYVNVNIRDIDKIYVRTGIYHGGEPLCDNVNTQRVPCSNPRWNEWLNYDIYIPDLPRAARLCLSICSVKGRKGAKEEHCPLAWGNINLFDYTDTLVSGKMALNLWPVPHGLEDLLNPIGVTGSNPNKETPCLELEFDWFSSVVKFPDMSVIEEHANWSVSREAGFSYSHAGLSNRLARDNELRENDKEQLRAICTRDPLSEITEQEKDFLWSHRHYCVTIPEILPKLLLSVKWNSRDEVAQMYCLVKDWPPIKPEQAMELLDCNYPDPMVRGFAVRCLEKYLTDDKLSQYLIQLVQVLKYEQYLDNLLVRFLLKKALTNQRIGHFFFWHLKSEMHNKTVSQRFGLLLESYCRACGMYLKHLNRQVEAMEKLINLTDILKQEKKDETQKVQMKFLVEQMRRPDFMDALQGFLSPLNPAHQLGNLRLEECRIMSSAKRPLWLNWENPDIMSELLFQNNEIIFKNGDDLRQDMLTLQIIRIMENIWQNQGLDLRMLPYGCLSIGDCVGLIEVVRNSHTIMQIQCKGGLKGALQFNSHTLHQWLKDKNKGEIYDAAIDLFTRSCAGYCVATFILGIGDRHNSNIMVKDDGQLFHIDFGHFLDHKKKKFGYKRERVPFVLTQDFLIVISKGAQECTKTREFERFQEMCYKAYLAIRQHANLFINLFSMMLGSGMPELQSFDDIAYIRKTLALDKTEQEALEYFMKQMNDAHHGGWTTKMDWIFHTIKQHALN

What was measured:
PI 3-kinase (p110α/p85α) [1] = assay: PI 3-kinase inhibition assay; type: biochemical; conditions: selectivity ratio from the IC50s for PI 3-kinase and DNA-PK
PI 3-kinase (p110α/p85α) [2] = target: PI 3-kinase (p110α/p85α) (UniProt P32871); assay: PI 3-kinase inhibition assay; type: biochemical; conditions: read-out: PI 3-kinase Inhibition IC50; GST-fused p110α/p85α

`O=c1cc(-c2ccc(Cl)cc2)oc(N2CCOCC2)c1` [Compound 284, 2-(4-chlorophenyl)-6-(morpholin-4-yl)-pyran-4-one] was tested, and the “Δ(DNA-PK/PI 3-K)” value (PI 3-kinase (p110α/p85α) [1]) was 29 and the IC50 (PI 3-kinase (p110α/p85α) [2]) was 10 µM.
